# Data reported in PubChem BioAssay AID1259415 (National Center for Advancing Translational Sciences (NCATS), 2018).
# “And” between values parts separate entries of the source, which are not always exact repeats. Equal values may be shown once. About 18,000 (4.4%) of roughly 410,000 compounds were called active. The inconclusive results got no clear call from the source; some entries with a clear call stand among them for comparison. Rule as the data show it: active = activity change below about -60%; inconclusive = no clear call, values can overlap the other calls; inactive = above about -39%.
# Test: qHTS Assay for inhibitors of the human cytomegalovirus (HCMV)
# Conditions: HFF cells, HCMV-luciferase reporter, 72 h; at 57.5 µM; active compounds read low
# Procedure, shortened: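 Steps: HFFs plated, 16 h 37C; compounds added; HCMV-luciferase added to MOI 1 PFU/cell; 72 h 37C; OneGlo reagent, 5 min room temperature; luminescence read, normalized to controls.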
# % is scaled to controls: 0 for no effect and ±100 for the full control effect.
row,Compound,"activity change, negative = inhibition"
1,COc1ccc(CNC(=O)CS(=O)Cc2nc(-c3ccc(OC)c(OC)c3)oc2C)cc1 (configuration not stated),inactive: 0.272% and inactive: 11.5%
2,CCOc1ccc2nc(N3CCN(C(=O)c4ccc(S(=O)(=O)CC)cc4)CC3)sc2c1,inconclusive: -47.3%
3,C=C(C)Cc1c(C)c(C#N)c2nc3ccccc3n2c1N1CCCCC1,inconclusive: -53.2%
4,COc1ccc(/C=N/NC(=O)c2nonc2C)cc1,inactive: -3.39%
5,COc1ccc(Cl)cc1Nc1cc(C)nc2ccccc12,active: -86.8%
6,COc1ccc(CCNC(=O)CSc2nc3nc(C)c(Cc4ccc(C)cc4)c(C)n3n2)cc1OC,inconclusive: -55.4%
7,Cc1cccc(C(C)C)c1NC(=O)CN(C)Cc1cccc(F)c1,inconclusive: -40.2%
8,CCN1CCN(C(=O)c2ccc3c(c2)N(Cc2cccc(Cl)c2)C(=O)c2ccccc2S3=O)CC1 (configuration not stated),inconclusive: -54.2%
9,Cc1oc2c(F)c(F)c(F)c(F)c2c1S(=O)(=O)Nc1cccc(C(F)(F)F)c1,active: -97.8%
10,COc1cc(/C=C2\SC(=O)NC2=O)ccc1Oc1cnccn1,inconclusive: -48.6%
11,O=C(N/N=C/c1c[nH]c2ccc(Br)cc12)c1ccc2c(c1)OCO2,inconclusive: -54.3%
12,Cc1cc(C)c(NC(=O)CSc2nc3ccccc3c3nc(CCn4cncc4C)nn23)c(C)c1,inconclusive: -46.9%
13,CC(=O)Nc1ccc(S(=O)(=O)N(C)c2ccc(OCC(=O)OCC(=O)Nc3ccc(OC(F)F)cc3)cc2)cc1,inconclusive: -41.5%
14,COCCNC(=S)N1CCC(c2nc(-c3ccc(F)cc3)no2)CC1,inconclusive: -42%
15,Cc1nonc1C(=O)N/N=C/c1ccc([N+](=O)[O-])o1,inconclusive: -48.3%
16,COc1ccccc1C(=O)Nc1ccc2c(c1)CCCN2C(=O)c1ccccc1,inconclusive: -40.1%
17,Fc1ccc2c(c1)nnn2C1CCN(Cc2c(Cl)cccc2Cl)CC1,inconclusive: -50.7%
18,O=S(=O)(c1cccc(Cl)c1)N1CCCC1,active: -107%
19,NC(=O)[C@@H]1CC2(CC(c3cccc(NC(=O)CC(c4ccccc4)c4ccccc4)c3)=NO2)CN1C(=O)c1ccc(Cl)cc1 (some centres not stated),active: -72.4%
20,O=C(COC(=O)c1ccc[nH]c1=O)Nc1ccc(N2CCCCC2)cc1,active: -75.4%
21,COc1ccc(N(CC(=O)Nc2ccc(C)c(C)c2)S(=O)(=O)c2c(C)noc2C)cc1,inconclusive: -48.8%

row,Compound,"activity change, negative = inhibition"
1,COc1ccc(S(=O)(=O)c2nnn(-c3cccc(OC)c3)c2N)cc1,inconclusive: -45.4%
2,Cc1nc(SCC(=O)Nc2ccc3[nH]c(=O)[nH]c3c2)nc(C)c1C,inconclusive: -40.9%
3,Cc1ccc(-c2cc[n+](Cc3ccccc3)cc2)cc1,inconclusive: -49.4%
4,O=C1/C(=C/c2ccccn2)SC(=S)N1c1cccc(O)c1,inconclusive: -46.2%
5,CCC(C)NCCOc1ccc(C(C)(C)c2ccccc2)cc1 (configuration not stated),inconclusive: -42.3%
6,CCOc1ccc(CN2CCc3nc(N4CCN(c5ncccn5)CC4)ncc3C2)cc1OC,inconclusive: -48.5%
7,COc1ccc(S(=O)(=O)N(C)c2ccc(C(=O)N3CCN(c4ccccc4)CC3)cc2)cc1OC,inactive: 18.6%
8,NS(=O)(=O)c1ccc(NCc2cc(Cl)ccc2OCc2ccccc2F)cc1,active: -61%
9,O=[N+]([O-])c1ccc(Oc2ccc(S(=O)(=O)N3CCCCC3)cc2)cc1,active: -63.3%
10,CC(=O)OC(C(=O)NCCN1CCOCC1)c1c(F)cccc1F (configuration not stated),inconclusive: -43.3%
11,Cc1ccc(CCNC(=O)CCS(=O)(=O)Cc2ccc(C)cc2)cc1,inconclusive: -51.7%
12,Cc1ccc(N2C(=O)NC(=O)/C(=C/c3ccoc3)C2=O)cc1,inconclusive: -46.6%
13,Cc1nc2ccccc2c(N)c1C(=O)/C=C/c1ccccc1,active: -98.5%
14,CC1=C(C(=O)Nc2cc(Cl)ccc2C)C2(CCCCC2)OC1=O,inactive: -16.8%
15,COC(=O)c1cc2ccsc2n1CC(=O)N(C)c1ccccc1,inconclusive: -51.4%
16,COc1cccc(C(=O)NCC(=O)OCc2ccc(F)cc2Cl)c1,inconclusive: -47.7%
17,O=C(NCc1ccccn1)[C@@H]1C[C@H]1[C@@H](NP(=O)(c1ccccc1)c1ccccc1)c1ccccc1,inactive: -12.7%
18,O=[N+]([O-])c1ccc(NS(=O)(=O)c2ccccc2)c(Cl)c1,inconclusive: -57.7%
19,Cc1ccc(C(=O)CCS(=O)(=O)c2ccc(Br)cc2)cc1,inactive: 31.6%
20,CC1CC(C)CN(CCCNC(=O)Cn2cccc2C(=O)c2ccccc2)C1 (configuration not stated),inconclusive: -44.4%
21,Cc1ccc(C)c(NC(=S)N2CCN(c3ccccn3)CC2)c1,inactive: -18.3%

# Exported with tabs: part of the list above
row	Compound	activity change, negative = inhibition
11	O=C(N/N=C/c1c[nH]c2ccc(Br)cc12)c1ccc2c(c1)OCO2	inconclusive: -54.3%
19	NC(=O)[C@@H]1CC2(CC(c3cccc(NC(=O)CC(c4ccccc4)c4ccccc4)c3)=NO2)CN1C(=O)c1ccc(Cl)cc1 (some centres not stated)	active: -72.4%
